In paper PMC12727705:

B1: HCF-1 (protein, UniProt G5EC23 1-782)
chain: MDEDVGLEATNYSRGDESRSEEQEKNVVRWRIVQQSTGPNPKPRHGHRAVVLKELIVIFGGGNEGMIDELHAYNTQKREWTAPQCCGDVPTPAAAFGAISLGNKIYRFGGMTEYGKYTNDLYELQSTRWEWRRLNPRVHSNGHLPCPRIGHSFVVSQKSQKAYVFGGLSNDLNDPKRNVPHYLDDLYVINLSGPQHLIWEKLNATGPGPISRESHTAVIYEKDSISRMVVYGGMNGVRLGDLWYLNLNTLHWTEIKFDDPRTGIPPMPRSLHSSVLIGDKMFVYGGWVPLLEHASTEQQTEKEWKCTSSLGCWNITEDRWVPLHLYCSDEDTIPRGRAGHCAAAVGDRMYIWSGRDGYRKAWSNQVCCRDMWLLDTILPEQPGKVQLGRAGFNSLEISWPIVQGASGYFLQIGFGDAKEQSVSPIKRATTSPRKQPSIVPPSQKETEQSPKKPQGTAPSIISTQGTTYTAPADPKPATDEGGLPQDLFEDTEKNETASPKRSNDAQSADSSTCEQKKTDESGLEEDSEKDQKPSDAGETDEMKEENGDDDLPWFDVGIIDKATINVTHYFNDRQQSLEKQLNDLIDHNAFKCVNDSVFTTEDKIPLINGQSYRFRVSAINGLGKGAWSETASCKTCVPGYPSAPSSIRITKSHEGAQLTWEPPSNTNISGKIIEYSVYLAVKNQSANSADSQLAFMRVYCGPQADCQVLQSNLGTAFVDQTNKPAIIFRIAARNEKGYGPATQVRWLQDQQKIPVRTNYPNNSGFIYQQHGGQQKRARFDHQ
B2: SGK-1 (enzyme, UniProt Q2PJ68 1-463)
chain: MGSMYYNESRMVRKDEVTCNVIIGDDKKTVVYALRIGNGPIMQKTFEEYERFFTTEKDMIPATIFTAPKKKFLQADSKFYEKRRVWILVISQHLVDNNLRSEDVRRFFHLESPDDDENNVDLGPSERKTATANDFDYLTTIGKGSFGRVYQVRHKETKKIYAMKILSKEHIRKKNEVKHVMAERNVLINNFKHPFLVSLHFSFQNKEKLYFVLDHLNGGELFSHLQREKHFSESRSRFYAAEIACALGYLHEKNIIYRDLKPENLLLDDKGYLVLTDFGLCKEDMQGSKTTSTFCGTPEYLAPEIILKKPYDKTVDWWCLGSVLYEMIFGLPPFYSKDHNEMYDKIINQPLRLKHNISVPCSELITGLLQKDRSKRLGHRNDFRDIRDHPFFLPVDWDKLLNRELKAPFIPKVKNAMDTSNISKEFVEIQIDPSSLAPQQLAVTHRDHDFENFTFVDTNRVLV
B3: AKT-1 (enzyme, UniProt Q17941 1-541)
chain: MSMTSLSTKSRRQEDVVIEGWLHKKGEHIRNWRPRYFMIFNDGALLGFRAKPKEGQPFPEPLNDFMIKDAATMLFEKPRPNMFMVRCLQWTTVIERTFYAESAEVRQRWIHAIESISKKYKGTNANPQEELMETNQQPKIDEDSEFAGAAHAIMGQPSSGHGDNCSIDFRASMISIADTSEAAKRDKITMEDFDFLKVLGKGTFGKVILCKEKRTQKLYAIKILKKDVIIAREEVAHTLTENRVLQRCKHPFLTELKYSFQEQHYLCFVMQFANGGELFTHVRKCGTFSEPRARFYGAEIVLALGYLHRCDIVYRDMKLENLLLDKDGHIKIADFGLCKEEISFGDKTSTFCGTPEYLAPEVLDDHDYGRCVDWWGVGVVMYEMMCGRLPFYSKDHNKLFELIMAGDLRFPSKLSQEARTLLTGLLVKDPTQRLGGGPEDALEICRADFFRTVDWEATYRKEIEPPYKPNVQSETDTSYFDNEFTSQPVQLTPPSRSGALATVDEQEEMQSNFTQFSFHNVMGSINRIHEASEDNEDYDMG
B4: AKT-2 (enzyme, UniProt Q9XTG7 1-528)
chain: MSTENAHLQKEDIVIESWLHKKGEHIRNWRPRYFILFRDGTLLGFRSKPKEDQPLPEPLNNFMIRDAATVCLDKPRPNMFIVRCLQWTTVIERTFYADSADFRQMWIEAIQAVSSHNRLKENAGNTSMQEEDTNGNPSGESDVNMDATSTRSDNDFESTVMNIDEPEEVPRKNTVTMDDFDFLKVLGQGTFGKVILCREKSSDKLYAIKIIRKEMVVDRSEVAHTLTENRVLYACVHPFLTLLKYSFQAQYHICFVMEFANGGELFTHLQRCKTFSEARTRFYGSEIILALGYLHHRNIVYRDMKLENLLLDRDGHIKITDFGLCKEEIKYGDKTSTFCGTPEYLAPEVIEDIDYDRSVDWWGVGVVMYEMMCGRLPFSAKENGKLFELITTCDLKFPNRLSPEAVTLLSGLLERVPAKRLGAGPDDAREVSRAEFFKDVDWEATLRKEVEPPFKPNVMSETDTSFFDREFTSMPVQLTPPRRGEELPTVDEEEELQANFIQFASYYVSGSLERSYDTNRSADKYEIR
B5: PFS-2 (protein, UniProt U4PCM1 1-809)
chain: MNGGMMRGNQMPNVTLTIQPSTSSMQNSQPRIMNNHHHPHNRFQREHVMPDVMGDGPGRRLRKNVANVRRHVDYVSTVLNHCENRLWQYGKQRILQQPDILYQQYAVPADSTPDVPVDCILTKFIRTAMNKVKCPVYSVCWSPEGKRLITGCQTGEFTLWNGTAFNFETILQAHDSAIRALKWASNEQWLLSADQGGYVKYWQPNMNNAHMFSAHKDEAIRGLAFAPTDVKFATASDDGTARVWDFARYTEERVLRGHGAEVRCIDWHPTKGLIATGSRDTQQPVKIWDPKSGSCLATLQEHKSSVMAVEFNKNGNWLLTGGRDHLVKMYDIRMMKEMRTYRAHKKEVISLAWHPIHEGLFVSGGGDGSIVYWMVDGEKEIGLLEHAHDQAIWSMKWHPLGHILATGSNDNNTKFWARNRPGDTVEDIFGLSNTNMIGHLDKEREPRMAPPKPSIETQETYRPDTFIPGMGLDEHLYEQLNRDHNMMTTDSTLLVPDDLTRQNFAPMIGAKRTLIKQPPAKKAQRQFERMWNNSKGIGAGSDDFTTMKGGLGREDAEGAQFGPSKSFLGPPTTGGSLLGPSQPRPQEFRSVPPPQQQQGPPPNWRHQGPPMSGPGQGYGPPGRMGGNQGGWQRPPPQGSYGGQGPPQGSYGGQGTLQGSYASQQGPPPRQIQHIPSDIDYRTAPSSSNGSTGDVDMRTMVPNQPPSGEPEHWRGPPPVSHQQQSQQQHPPPINMQRMDPRRDPRMLSGRSDQLSPSGPPPQQQQSSAQQGGKNQWMPQFEAGQNQNQGNYAGNRGGGVGGRGRGRGQPY
B6: DPFF-1 (protein, UniProt Q09477 1-372)
chain: MISENGYMDLMRNCIKWNSRQMEDRKKRLRFPYYEHQTATAQRESRFTTRNVDHMYPSNDPNTVVQFATERWKKSKSQPPSDAVEMSMFLRENPSIQVAIDHLTPQVVGPTTESVSDSSNDSTTIRPSRQTQIKEEYRDDYVLDDELSPDEFGSDEDDWSSRKRRKGNLGPVQKATSSRKKVPTTRSSVSRLTPSRSIVKETKYEEPEEKTYPCDKCSAKYKSLAGLSYHQSYLHDQKSSQPLVKLLSPSIEISTSCDFCSGTAFMNKNTKLPEDLVSCHDCGRSGHPSCLNFNQNVTKIIKRSGWQCLECKSCTICGTSENDDKLLFCDDCDRGYHLYCLTPALEKAPDDEYSCRLCQVEFGDKASAPAKK
B7: FCP-1 (enzyme, UniProt Q95QG8 1-659)
chain: MDIKFEGNDAECTAGLKKASEGSFVLKDHVLIEFKINGKVAGKIKTPCEGVVTFGKGLKPGIVLNKGQVIATVSECTHAIVIKDMCATCGKDLREKGGRAGQRKEQSTANVSMIHHVPELIVSDTLAKEIGSADENNLITNRKLVLLVDLDQTIIHTSDKPMTVDTENHKDITKYNLHSRVYTTKLRPHTTEFLNKMSNMYEMHIVTYGQRQYAHRIAQILDPDARLFEQRILSRDELFSAQHKTNNLKALFPCGDNLVVIIDDRSDVWMYSEALIQIKPYRFFKEVGDINAPKNSKEQMPVQIEDDAHEDKVLEEIERVLTNIHDKYYEKHDLRGSEEVLLDVKEVIKEERHKVLDGCVIVFSGIVPMGEKLERTDIYRLCTQFGAVIVPDVTDDVTHVVGARYGTQKVYQANRLNKFVVTVQWVYACVEKWLKADENLFQLTKESTPPVGRPLGSKYVNDLANMDTIGKAALADMNNEVDEALSDDEDDGDNEDEDDDGNDVGEDKGDENLEEKQEKNEEEMDDVEQNGSVENQSGDALENETDSTSRGQKRKHCPEMEDEEEESDSDNEDDDTPMSYKALLSDSRKKGRIVPENEDDAVFDVDDEKGHAPANIDEEEDDEDNEDEEVPESDDDDEFEDMAALIERQISDAVDEKDQ
B8: LIN-9 (protein, UniProt P30630 1-644)
chain: MSSAVRSPRKKAASDTSDPDRTSSPYSLRETSKVPSRYRNEELYLSPSRSIKRTGSPKKSPAKRLNGGRDSPSVNSLTRNSSLTMLAKAALDYESSSCALEYIFQPKEERRPPRRALALSPPPAPSNDLLAKDLEMIEMHQNLVAGLDDLDNPANMTNEAVEHRDTQSFFNMFSTDQERSAMMKQFKTYKNQTSEDVSTFMRANIKKLYNLLRYKKARQWVMCEFFYSAIDEQIFKEENEFATIIRESFPNLKNWNLTRIEWRSIRKLLGKPRRCSKVFFEEERMYLEEKRMKIRSVYEGSYLNDPSIDLKDLPAKLPRPMVVGNRVFARIRNPYDGIYSGIIDAVIPKGFRIIFDKPDIPPTLVSDTEILLDGKLDLLSIAYFIEQANSKLPSGVRPFVAAVRDSSHPHLVRDVLVSRKIERSGGPLMGPNDERLNGKNAEMVGNFPLKFLVNLVKLTKLIDIKKGLIRQLNELNADAEIQNMTSDKYSKAFQEKYAKTIIDLEHVNQNIDINMNGIQDHHMYFSSNDISTSNMKPEAVRQMCSQQAGRFVEHCNQGLNVENVHALTLIQSLTAVLLQVRTMGTQKISAVDLQSLGDAISEIRTAIHPRNVAFFQDYVEVHMKQFHTIMLESGALAGTVSNRK

The binders below were run against T1, DAF-16::TurboID::mNeongreen::3xFLAG (C. elegans) (UniProt O16850) (assay: proximity labelling; TurboID fused to endogenous DAF-16 in living C. elegans, wild-type (cytoDAF-16) or daf-2(e1370) (nucDAF-16) background; L4/young adults, 1 mM biotin in M9 for 2 h at 21 °C; biotinylated proteins affinity purified on streptavidin and identified by mass spectrometry; control: wild type without …).
T1 sequence: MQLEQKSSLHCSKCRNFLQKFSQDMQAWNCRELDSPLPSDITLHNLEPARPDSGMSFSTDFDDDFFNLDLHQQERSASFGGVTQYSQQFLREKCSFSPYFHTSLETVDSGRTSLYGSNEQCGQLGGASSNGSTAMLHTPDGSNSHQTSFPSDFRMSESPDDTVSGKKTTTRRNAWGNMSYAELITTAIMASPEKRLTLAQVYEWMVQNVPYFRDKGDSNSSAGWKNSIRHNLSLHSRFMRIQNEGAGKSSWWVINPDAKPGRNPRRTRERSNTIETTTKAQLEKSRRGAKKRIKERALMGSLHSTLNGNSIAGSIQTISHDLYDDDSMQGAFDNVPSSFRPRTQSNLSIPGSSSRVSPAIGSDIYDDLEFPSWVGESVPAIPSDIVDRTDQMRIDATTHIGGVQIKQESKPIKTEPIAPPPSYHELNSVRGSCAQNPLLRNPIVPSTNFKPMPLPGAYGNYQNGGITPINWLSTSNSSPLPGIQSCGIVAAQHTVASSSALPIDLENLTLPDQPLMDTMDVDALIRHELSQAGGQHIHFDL

Binder	binding
B1	binds
B2	binds
B3	binds
B4	binds
B5	binds
B6	binds
B7	binds
B8	binds

These are yes or no findings as the source states them, for the method shown. In cells and extracts the contact can be indirect. Here binding means that the protein was enriched with, or labelled near, the bait; the list need not be complete. Where a sequence is shown, tags or fusion partners need not be part of it.
